At least one compound was matched to its structure with a doubt left.
How the values were obtained:
[1] = system: carbapenemase-producing Enterobacteriaceae; assay: MIC by agar dilution; type: cell-based; set-up: unit not given beside the values; conditions: CPE (128)
Source text: (§1) Bacterial isolates. […] These included Citrobacter freundii (n=5), other species of Citrobacter (n=4), Enterobacter aerogenes (n=1), Enterobacter cloacae (n=27), Escherichia coli (n=53), Klebsiella oxytoca (n=5), Klebsiella pneumoniae (n=87), Kluyvera spp (n=1), Proteus mirabilis (n=8), Providencia rettgeri (n=2), Salmonella spp (n=3), and Serratia marcescens (n=1). Among these 197 isolates, there were 128 (65%) carbapenemase producers, including; 87 with NDM-1, 9 with IMP, 11 with KPC, 14 with OXA-48 and 7 with VIM. The majority of the carbapenemase producers jointly produced broad-spectrum β-lactamases (BSBL) or cephalosporinases (AmpC β-lactamases), but the latter are not documented for the sake of clarity.
(§2) Determining the minimum inhibitory concentrations (MIC). All the MICs were determined using an agar dilution method. This required use of a medium without a defined antagonist (peptone-free), prepared as described previously with the inclusion of 2% horse blood lysed with saponin, 25.0 μg/mL of NAD and 25.0 μg/mL of hemin [17]. […] The MICs of fosfomycin were determined by the same method, except that the IsoSensitest medium (Oxoid, Basingstoke, United Kingdom) was used, plus 25.0 μg/mL of glucose-6-phosphate (Sigma, Poole, United Kingdom) and an extended range of fosfomycin concentrations. […]

[2] = system: AmpC (22); assay: MIC by agar dilution; type: cell-based, Enterobacteriaceae; set-up: unit not given beside the values
Source text: as §1, §2

C[C@H](N)C(=O)N[C@@H](C)C(=O)N[C@@H](C)P(=O)(O)O [Di-alanyl fosfalin, L-alanyl-L-alanyl-L-1-aminoethylphosphonic acid]
MIC Range [1]: 0.063->8
MIC Range [2]: 0.063->8
